Where a chain is given by its changes, count along the chain named. Like-named read-outs stand apart in the source and are kept apart here. Results are given in words; binding and its absence hold for the method and conditions named. In cells and extracts the contact can be indirect. Some binding calls cover weakened binding; strength is not graded here. Sequences can lack the tags named with a protein.
B1: 6Myc-IRP2 (protein, UniProt P48200 1-963)
chain: MDAPKAGYAFEYLIETLNDSSHKKFFDVSKLGTKYDVLPYSIRVLLEAAVRNCDGFLMKKEDVMNILDWKTKQSNVEVPFFPARVLLQDFTGIPAMVDFAAMREAVKTLGGDPEKVHPACPTDLTVDHSLQIDFSKCAIQNAPNPGGGDLQKAGKLSPLKVQPKKLPCRGQTTCRGSCDSGELGRNSGTFSSQIENTPILCPFHLQPVPEPETVLKNQEVEFGRNRERLQFFKWSSRVFKNVAVIPPGTGMAHQINLEYLSRVVFEEKDLLFPDSVVGTDSHITMVNGLGILGWGVGGIETEAVMLGLPVSLTLPEVVGCELTGSSNPFVTSIDVVLGITKHLRQVGVAGKFVEFFGSGVSQLSIVDRTTIANMCPEYGAILSFFPVDNVTLKHLEHTGFSKAKLESMETYLKAVKLFRNDQNSSGEPEYSQVIQINLNSIVPSVSGPKRPQDRVAVTDMKSDFQACLNEKVGFKGFQIAAEKQKDIVSIHYEGSEYKLSHGSVVIAAVISCTNNCNPSVMLAAGLLAKKAVEAGLRVKPYIRTSLSPGSGMVTHYLSSSGVLPYLSKLGFEIVGYGCSICVGNTAPLSDAVLNAVKQGDLVTCGILSGNKNFEGRLCDCVRANYLASPPLVVAYAIAGTVNIDFQTEPLGTDPTGKNIYLHDIWPSREEVHRVEEEHVILSMFKALKDKIEMGNKRWNSLEAPDSVLFPWDLKSTYIRCPSFFDKLTKEPIALQAIENAHVLLYLGDSVTTDHISPAGSIARNSAAAKYLTNRGLTPREFNSYGARRGNDAVMTRGTFANIKLFNKFIGKPAPKTIHFPSGQTLDVFEAAELYQKEGIPLIILAGKKYGSGNSRDWAAKGPYLLGVKAVLAESYEKIHKDHLIGIGIAPLQFLPGENADSLGLSGRETFSLTFPEELSPGITLNIQTSTGKVFSVIASFEDDVEITLYKHGGLLNFVARKFS

Protein sequences, listed by entry. Tags and fused reporters are not part of them. Lines headed by an entry give the natural chain unless they say otherwise; changes in a name come on top. Residues count along the entry.
UniProt P40337, whole entry, looked up, stated change not applied: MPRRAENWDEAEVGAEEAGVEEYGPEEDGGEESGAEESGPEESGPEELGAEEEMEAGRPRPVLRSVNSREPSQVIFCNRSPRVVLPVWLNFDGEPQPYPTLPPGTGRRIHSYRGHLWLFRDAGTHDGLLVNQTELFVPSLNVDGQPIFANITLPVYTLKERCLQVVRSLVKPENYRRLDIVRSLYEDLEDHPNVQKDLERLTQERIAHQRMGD
UniProt P40337, 1-113: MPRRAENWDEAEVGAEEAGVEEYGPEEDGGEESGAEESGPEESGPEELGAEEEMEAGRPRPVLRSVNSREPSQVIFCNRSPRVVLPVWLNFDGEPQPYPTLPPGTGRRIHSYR
UniProt P40337, 114-154: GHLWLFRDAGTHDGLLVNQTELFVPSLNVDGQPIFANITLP
UniProt P40337, 155-189: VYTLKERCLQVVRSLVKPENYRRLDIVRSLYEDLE

How the values were obtained:
Test in all cases: co-IP
6Myc-FBXL5 (human) [1] = target: T1, 6Myc-FBXL5 (human) (UniProt Q9UKA1)
T1 sequence: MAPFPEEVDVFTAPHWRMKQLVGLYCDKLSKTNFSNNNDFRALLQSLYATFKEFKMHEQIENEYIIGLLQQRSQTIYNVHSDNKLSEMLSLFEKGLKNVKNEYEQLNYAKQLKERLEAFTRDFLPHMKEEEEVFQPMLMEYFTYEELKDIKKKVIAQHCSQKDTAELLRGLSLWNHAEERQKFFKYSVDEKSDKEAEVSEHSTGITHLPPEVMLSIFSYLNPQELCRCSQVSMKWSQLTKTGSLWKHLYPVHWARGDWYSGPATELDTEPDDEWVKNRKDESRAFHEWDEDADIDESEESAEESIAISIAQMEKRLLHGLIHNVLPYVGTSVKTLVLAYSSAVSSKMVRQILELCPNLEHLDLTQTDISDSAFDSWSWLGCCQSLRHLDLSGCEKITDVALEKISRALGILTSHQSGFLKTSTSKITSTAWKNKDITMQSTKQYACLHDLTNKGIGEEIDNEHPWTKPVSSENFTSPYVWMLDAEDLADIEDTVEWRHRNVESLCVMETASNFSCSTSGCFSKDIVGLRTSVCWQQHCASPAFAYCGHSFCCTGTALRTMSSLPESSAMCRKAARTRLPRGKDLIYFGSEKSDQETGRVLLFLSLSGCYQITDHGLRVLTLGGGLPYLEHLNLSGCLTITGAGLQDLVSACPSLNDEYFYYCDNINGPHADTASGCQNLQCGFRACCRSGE

6Myc-FBXL5 (human) [2] = target: T1, 6Myc-FBXL5 (human); remark: listed apart in the source
[3] = target: T2, 3xHA-3xFLAG-FBXL5 (human) (UniProt Q9UKA1)
T2 sequence: T1 sequence

[4] = target: T3, 3xHA-3xFLAG-FBXL5-4C>S (human) (UniProt Q9UKA1)
T3 sequence: T1 sequence with C662S, C676S, C686S, C687S

Row | Molecule | binding (6Myc-FBXL5 (human) [1]) | binding (6Myc-FBXL5 (human) [2]) | also measured
1 | YFP-VHL-114-154 (from UniProt P40337 114-154) (domain or fragment) | binds | – | –
2 | YFP-VHL-1-113 (from UniProt P40337 1-113) (domain or fragment) | no binding | – | –
3 | YFP-VHL-Δ134-170 (from UniProt P40337 1-213) | binds | – | –
4 | YFP-VHL-155-189 (from UniProt P40337 155-189) (domain or fragment) | binds | – | –
5 | YFP-VHL-Δ114-170 (from UniProt P40337 1-213) | no binding | – | –
6 | pVHL172 with deletion of the ElonginBC binding box (157-172 amino acids) (from UniProt P40337 1-213) | – | binds | –
7 | YFP-VHL-172 (from UniProt P40337-2 1-172) | binds | binds | –
8 | pVHL213 with deletion of the ElonginBC binding box (157-172 amino acids) (from UniProt P40337 1-213) | – | binds | –
9 | VHL with deletion of 98-154 amino acids (from UniProt P40337 1-213) | – | binds | –
10 | YFP-VHL-Δ98-170 (from UniProt P40337 1-213) | – | – | binding [3]: no binding
11 | YFP-VHL-Δ114-162 (from UniProt P40337 1-213) | binds | – | –
12 | B1 | – | – | binding [4]: no binding

From paper doi:10.1101/2024.01.29.577840
